These are yes or no findings as the source states them, for the method shown. Binding seen in cells or lysates may run through a third protein. Some entries that bind do so weakly or less than the wild type.
Target: T1, zinc transporter 4 (ZnT4) (rat (endogenous in hippocampus)) (UniProt O55174)
T1 sequence: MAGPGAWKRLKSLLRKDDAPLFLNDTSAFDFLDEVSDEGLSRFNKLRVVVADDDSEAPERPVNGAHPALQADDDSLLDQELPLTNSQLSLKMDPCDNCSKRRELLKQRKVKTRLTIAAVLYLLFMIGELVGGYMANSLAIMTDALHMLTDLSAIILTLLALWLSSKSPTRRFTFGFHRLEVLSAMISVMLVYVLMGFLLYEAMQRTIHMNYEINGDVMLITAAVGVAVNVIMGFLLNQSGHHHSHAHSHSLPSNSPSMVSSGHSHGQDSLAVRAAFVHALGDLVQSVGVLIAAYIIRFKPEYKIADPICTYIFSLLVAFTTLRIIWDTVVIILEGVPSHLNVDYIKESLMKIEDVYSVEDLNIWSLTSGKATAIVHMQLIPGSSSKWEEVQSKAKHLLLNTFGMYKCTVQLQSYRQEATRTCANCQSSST
Test: co-IP; extracts of rat hippocampus in RIPA lysis buffer; supernatant with ZnT4 antibody (1 ug) or goat IgG (1 ug) 2 h at 4 °C, protein A/G agarose overnight at 4 °C, washed 5 times with lysis buffer; blotted with goat anti-ZnT4 and mouse anti-DRP1

Amino acid sequences for entries named in this document (tags omitted).
UniProt O35303: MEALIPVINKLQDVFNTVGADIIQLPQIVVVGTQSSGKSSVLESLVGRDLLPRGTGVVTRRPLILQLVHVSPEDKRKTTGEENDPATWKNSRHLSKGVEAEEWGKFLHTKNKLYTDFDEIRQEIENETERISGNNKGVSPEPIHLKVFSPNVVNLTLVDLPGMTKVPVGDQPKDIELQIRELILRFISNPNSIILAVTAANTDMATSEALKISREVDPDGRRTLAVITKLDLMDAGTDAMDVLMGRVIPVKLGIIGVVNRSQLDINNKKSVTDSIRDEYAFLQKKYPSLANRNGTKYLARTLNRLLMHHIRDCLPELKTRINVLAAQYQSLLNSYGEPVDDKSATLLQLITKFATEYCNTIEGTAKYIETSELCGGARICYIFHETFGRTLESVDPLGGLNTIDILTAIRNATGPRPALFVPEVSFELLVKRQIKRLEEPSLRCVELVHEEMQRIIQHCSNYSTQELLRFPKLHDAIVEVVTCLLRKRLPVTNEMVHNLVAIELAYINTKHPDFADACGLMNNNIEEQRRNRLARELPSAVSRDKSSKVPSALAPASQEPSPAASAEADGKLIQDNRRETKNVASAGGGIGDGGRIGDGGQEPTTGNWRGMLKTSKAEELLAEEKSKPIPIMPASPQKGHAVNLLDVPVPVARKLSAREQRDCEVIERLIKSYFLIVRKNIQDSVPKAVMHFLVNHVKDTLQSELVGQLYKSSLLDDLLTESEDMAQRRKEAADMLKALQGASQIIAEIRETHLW

binding: binds
Substance: DRP1 (from UniProt O35303 1-755)

From PMC6168633
